The target in the experiment is T1, Nt-free TMEM97 peptide (UniProt Q5BJF2).
T1 sequence (peptide, biotin at the C-terminus after the Lys3 spacer): GAPATRRCVEKKK
Kind of experiment: affinity purification with mass spectrometry; biotinylated 10-mer Nt-peptides on magnetic streptavidin beads incubated with HeLa lysate; retained proteins digested on bead and quantified label-free by LC-MS (DIA); pairwise comparison of two peptides; n = 3; only the target purified.

Amino acid sequences for entries named in this document (tags omitted). A change or cut given only in a name is not applied to a line headed by its entry.
UniProt Q5BJF2: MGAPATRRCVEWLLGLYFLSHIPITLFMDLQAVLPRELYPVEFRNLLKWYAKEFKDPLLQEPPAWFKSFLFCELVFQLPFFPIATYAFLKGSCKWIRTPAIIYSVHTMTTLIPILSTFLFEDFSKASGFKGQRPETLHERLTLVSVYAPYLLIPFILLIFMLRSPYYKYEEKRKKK
UniProt Q9C0D3: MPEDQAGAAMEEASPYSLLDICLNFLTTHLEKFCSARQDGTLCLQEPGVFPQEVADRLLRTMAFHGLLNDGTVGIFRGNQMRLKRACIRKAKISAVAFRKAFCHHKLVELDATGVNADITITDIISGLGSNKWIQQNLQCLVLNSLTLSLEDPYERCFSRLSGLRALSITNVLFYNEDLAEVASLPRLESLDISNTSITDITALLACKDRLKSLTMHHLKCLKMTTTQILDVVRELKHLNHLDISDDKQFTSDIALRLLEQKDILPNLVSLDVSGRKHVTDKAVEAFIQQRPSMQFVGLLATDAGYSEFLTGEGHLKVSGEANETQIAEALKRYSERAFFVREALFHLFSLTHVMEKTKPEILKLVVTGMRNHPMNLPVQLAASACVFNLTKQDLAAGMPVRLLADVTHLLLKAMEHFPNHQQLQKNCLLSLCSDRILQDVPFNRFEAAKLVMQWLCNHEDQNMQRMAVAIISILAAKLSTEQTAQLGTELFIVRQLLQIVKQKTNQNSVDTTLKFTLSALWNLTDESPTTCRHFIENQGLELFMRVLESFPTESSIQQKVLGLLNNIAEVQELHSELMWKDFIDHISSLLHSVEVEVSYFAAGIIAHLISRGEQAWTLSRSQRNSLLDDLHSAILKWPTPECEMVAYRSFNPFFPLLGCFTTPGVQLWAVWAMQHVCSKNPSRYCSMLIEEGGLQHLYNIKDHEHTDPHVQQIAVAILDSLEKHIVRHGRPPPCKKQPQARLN

These are yes or no findings as the source states them, for the method shown. Binding seen in cells or lysates may run through a third protein. Here binding means that the protein was enriched with, or labelled near, the bait; the list need not be complete.

Experimental findings from paper PMC12775124, “CUL4A-DDB1-DCAF10 is an N-recognin for N-terminally acetylated Src kinases” (Nature Communications, 2026) are described below.

With ZYG11B (from UniProt Q9C0D3 1-744), the binding result is “binds”.
